Source: patent US5807986A (The Salk Institute For Biological Studies, priority 1995, dated 1998)
Strings that start with PEPTIDE1 are HELM notation: dots part the residues, brackets hold end groups and non-standard residues.

Assay: general procedure: Boc solid-phase peptide synthesis
Settings: whole synthesis

| Substance | final purity (method not given) (capillary zone electrophoresis) | final purity (method not given) (capillary zone electrophoresis (CZE) and RP-HPLC) |
| --- | --- | --- |
| (cyclo 1-8)H-Cys-Phe-Phe-(2-naphthylamido)Gly-Lys-Thr-Phe-Cys-OH | greater than 80% pure |  |
| PEPTIDE1{C.F.F.[Agl(2-naphthoyl)].K.T.F.C}$PEPTIDE1,PEPTIDE1,1:R3-8:R3$$$V2.0 | greater than 80% pure |  |
| PEPTIDE1{[ac].[D-2Nal].[D-4Cpa].[Agl(nicotinoyl)].S.[Aph(Ac)].[D-Aph(Ac)].L.[ILys].P.[dA].[am]}$$$$V2.0 |  | 97%-98% |
